The list shows a part of the results. Most values lie at the level of the controls, where differences are scatter.
compound: CN[C@@H]1C[C@H]2O[C@@](C)([C@@H]1OC)n1c3ccccc3c3c4c(c5c6ccccc6n2c5c31)C(=O)NC4 [staurosporine]; assay: log2 fold change of tryptic peptide abundance, ligand vs vehicle (limited proteolysis) (log2 ratio); higher = more trypsin-susceptible (destabilized); conditions: ligand concentration: 20 uM; sample: K562 cleared lysate; digestion: 4 min, 22 C (HT-PELSA RT4min, Orbitrap Astral)

Chains of the proteins cited; added tags and fusions are not shown. Lines headed by an entry give the natural chain unless they say otherwise; changes in a name come on top.
UniProt Q6P4I2: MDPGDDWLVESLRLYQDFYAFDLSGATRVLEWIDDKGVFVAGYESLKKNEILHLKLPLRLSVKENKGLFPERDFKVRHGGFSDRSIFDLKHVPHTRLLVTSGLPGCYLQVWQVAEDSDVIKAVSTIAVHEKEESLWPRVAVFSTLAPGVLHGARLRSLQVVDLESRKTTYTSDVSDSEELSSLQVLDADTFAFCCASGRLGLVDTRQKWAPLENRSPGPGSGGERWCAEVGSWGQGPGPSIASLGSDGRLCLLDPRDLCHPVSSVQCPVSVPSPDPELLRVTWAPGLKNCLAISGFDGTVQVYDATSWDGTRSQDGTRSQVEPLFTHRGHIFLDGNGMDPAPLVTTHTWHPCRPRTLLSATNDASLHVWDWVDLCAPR
UniProt Q6ZMS4: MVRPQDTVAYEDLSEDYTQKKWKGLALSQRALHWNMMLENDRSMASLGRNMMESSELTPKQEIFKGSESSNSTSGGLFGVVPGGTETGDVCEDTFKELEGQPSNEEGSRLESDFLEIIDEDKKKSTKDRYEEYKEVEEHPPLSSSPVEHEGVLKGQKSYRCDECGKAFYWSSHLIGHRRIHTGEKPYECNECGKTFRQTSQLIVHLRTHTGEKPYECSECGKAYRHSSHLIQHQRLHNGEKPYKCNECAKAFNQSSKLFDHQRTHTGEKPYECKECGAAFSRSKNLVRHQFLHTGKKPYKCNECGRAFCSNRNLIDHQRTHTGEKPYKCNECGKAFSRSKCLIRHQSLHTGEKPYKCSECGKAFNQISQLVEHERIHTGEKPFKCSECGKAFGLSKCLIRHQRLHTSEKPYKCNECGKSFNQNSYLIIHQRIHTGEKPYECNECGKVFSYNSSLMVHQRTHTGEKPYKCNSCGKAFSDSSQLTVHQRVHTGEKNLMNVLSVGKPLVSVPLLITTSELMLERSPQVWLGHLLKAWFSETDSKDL
UniProt Q6P1R4: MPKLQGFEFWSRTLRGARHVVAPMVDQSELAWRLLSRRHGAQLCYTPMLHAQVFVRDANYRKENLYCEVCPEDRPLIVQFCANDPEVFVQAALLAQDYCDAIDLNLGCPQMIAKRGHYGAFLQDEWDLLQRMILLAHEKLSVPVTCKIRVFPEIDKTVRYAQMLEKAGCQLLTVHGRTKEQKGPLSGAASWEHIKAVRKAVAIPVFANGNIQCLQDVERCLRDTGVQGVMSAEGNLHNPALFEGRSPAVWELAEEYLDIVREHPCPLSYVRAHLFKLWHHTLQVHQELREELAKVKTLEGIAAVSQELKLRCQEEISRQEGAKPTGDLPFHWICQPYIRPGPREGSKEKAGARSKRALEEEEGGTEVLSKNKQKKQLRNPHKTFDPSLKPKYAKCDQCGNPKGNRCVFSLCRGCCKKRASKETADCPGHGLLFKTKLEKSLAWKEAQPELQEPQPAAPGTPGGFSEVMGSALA
UniProt Q6UVJ0: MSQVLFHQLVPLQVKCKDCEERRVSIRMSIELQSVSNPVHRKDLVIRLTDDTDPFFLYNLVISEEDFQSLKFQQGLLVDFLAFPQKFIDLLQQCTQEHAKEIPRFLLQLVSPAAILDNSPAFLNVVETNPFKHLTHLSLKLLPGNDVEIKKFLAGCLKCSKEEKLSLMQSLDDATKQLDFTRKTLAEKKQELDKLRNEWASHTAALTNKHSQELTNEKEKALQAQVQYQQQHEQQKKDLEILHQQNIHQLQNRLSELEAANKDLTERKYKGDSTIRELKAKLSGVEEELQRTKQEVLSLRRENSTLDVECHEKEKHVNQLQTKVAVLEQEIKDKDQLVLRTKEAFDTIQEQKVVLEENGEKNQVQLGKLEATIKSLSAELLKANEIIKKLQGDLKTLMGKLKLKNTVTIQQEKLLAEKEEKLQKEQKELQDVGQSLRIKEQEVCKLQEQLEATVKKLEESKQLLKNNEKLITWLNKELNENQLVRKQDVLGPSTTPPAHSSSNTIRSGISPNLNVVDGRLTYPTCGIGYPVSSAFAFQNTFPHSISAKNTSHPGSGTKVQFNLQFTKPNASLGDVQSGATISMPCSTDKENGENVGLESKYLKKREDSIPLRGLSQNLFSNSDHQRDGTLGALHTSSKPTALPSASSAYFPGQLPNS
UniProt Q6YN16: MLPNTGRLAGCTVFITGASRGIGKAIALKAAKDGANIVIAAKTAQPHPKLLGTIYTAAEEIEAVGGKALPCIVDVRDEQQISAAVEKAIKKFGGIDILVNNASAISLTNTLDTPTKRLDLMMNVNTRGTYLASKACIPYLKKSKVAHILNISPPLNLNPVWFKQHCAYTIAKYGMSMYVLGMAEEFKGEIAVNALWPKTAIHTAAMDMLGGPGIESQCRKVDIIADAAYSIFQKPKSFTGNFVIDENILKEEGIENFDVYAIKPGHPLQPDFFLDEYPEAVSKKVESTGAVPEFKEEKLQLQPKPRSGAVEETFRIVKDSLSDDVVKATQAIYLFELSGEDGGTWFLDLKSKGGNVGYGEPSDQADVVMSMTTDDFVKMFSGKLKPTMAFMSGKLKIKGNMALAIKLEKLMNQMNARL
UniProt Q6NXR0: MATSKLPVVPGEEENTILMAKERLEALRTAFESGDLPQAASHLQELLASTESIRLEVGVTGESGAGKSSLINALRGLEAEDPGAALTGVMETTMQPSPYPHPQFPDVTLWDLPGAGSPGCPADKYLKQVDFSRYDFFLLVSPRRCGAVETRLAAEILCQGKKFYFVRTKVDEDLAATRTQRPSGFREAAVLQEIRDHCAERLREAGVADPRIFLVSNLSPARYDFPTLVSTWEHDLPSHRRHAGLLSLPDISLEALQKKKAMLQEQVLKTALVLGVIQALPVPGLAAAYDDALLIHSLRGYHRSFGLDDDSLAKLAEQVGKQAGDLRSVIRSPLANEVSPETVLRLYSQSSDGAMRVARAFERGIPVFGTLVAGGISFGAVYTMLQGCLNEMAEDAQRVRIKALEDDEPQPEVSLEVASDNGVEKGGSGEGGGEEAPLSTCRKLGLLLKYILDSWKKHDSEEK
UniProt Q6DD88: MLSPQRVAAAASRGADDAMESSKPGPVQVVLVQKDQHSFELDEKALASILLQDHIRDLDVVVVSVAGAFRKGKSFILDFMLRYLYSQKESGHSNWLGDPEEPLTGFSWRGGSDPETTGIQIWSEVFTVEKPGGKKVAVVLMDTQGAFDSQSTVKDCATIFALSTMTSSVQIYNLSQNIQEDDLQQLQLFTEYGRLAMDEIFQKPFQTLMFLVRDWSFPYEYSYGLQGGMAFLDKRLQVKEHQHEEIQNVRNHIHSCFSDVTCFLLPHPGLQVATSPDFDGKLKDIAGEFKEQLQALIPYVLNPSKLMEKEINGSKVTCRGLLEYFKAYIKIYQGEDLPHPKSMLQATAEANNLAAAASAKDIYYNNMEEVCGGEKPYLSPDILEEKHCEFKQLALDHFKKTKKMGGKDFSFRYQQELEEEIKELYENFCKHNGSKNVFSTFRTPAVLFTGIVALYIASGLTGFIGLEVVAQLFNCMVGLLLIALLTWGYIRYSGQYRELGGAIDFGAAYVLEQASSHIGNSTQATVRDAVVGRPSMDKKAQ
UniProt Q66PJ3: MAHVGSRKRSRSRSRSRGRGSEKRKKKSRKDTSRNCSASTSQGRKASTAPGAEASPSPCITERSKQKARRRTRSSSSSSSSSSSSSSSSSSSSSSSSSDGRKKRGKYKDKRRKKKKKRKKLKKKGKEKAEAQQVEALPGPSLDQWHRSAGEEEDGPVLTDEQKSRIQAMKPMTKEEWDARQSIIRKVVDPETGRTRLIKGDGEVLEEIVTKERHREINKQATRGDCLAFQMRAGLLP
UniProt Q6SJ93: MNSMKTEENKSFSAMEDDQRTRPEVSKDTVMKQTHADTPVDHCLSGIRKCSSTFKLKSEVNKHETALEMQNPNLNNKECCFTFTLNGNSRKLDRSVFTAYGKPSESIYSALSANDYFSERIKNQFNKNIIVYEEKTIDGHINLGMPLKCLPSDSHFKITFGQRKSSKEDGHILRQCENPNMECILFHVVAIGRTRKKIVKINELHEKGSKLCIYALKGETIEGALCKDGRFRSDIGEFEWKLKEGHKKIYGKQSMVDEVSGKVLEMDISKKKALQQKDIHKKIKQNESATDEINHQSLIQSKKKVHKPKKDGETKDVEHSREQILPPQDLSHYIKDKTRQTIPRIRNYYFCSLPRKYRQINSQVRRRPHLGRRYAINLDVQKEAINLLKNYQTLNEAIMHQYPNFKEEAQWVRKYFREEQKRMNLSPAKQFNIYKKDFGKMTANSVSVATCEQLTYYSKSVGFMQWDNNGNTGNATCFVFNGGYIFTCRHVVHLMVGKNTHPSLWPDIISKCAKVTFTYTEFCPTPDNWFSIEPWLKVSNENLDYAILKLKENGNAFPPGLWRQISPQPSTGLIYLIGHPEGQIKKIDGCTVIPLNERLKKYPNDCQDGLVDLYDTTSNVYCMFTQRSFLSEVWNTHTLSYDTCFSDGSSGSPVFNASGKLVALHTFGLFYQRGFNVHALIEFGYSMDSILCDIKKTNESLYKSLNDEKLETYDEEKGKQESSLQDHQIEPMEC
UniProt Q6P5X5: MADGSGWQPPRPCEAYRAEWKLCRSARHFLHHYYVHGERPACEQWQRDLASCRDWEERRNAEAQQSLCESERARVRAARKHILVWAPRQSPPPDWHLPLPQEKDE

Target | log2 fold change
WDR73 (peptide sequence: SQVEPLFTHR, peptide start residue: 319) (UniProt Q6P4I2) | 0.362
ZNF852 (peptide sequence: LESDFLEIIDEDKKK, peptide start residue: 110) (UniProt Q6ZMS4) | -1.08
DUS1L (peptide sequence: PKLQGFEFWSR, peptide start residue: 2) (UniProt Q6P1R4) | 0.35
SASS6 (peptide sequence: VAVLEQEIKDKDQLVLR, peptide start residue: 324) (UniProt Q6UVJ0) | -0.436
HSDL2 (peptide sequence: KVESTGAVPEFK, peptide start residue: 284) (UniProt Q6YN16) | -0.46
UniProt Q6NXR0 (peptide sequence: KKAMLQEQVLK, peptide start residue: 259) | 0.617
ATL3 (peptide sequence: GKSFILDFMLR, peptide start residue: 72) (UniProt Q6DD88) | 0.561
ARL6IP4 (peptide sequence: IQAMKPMTK, peptide start residue: 166) (UniProt Q66PJ3) | 0.191
FAM111B (peptide sequence: CSSTFKLKSEVNK, peptide start residue: 50) (UniProt Q6SJ93) | 0.146
C22orf39 (peptide sequence: HFLHHYYVHGERPACEQWQR, peptide start residue: 65) (UniProt Q6P5X5) | -0.368

Three entries from above, set out differently:

| Target | log2 fold change |
| --- | --- |
| ATL3 (peptide sequence: GKSFILDFMLR, peptide start residue: 72) (UniProt Q6DD88) | 0.561 |
| ARL6IP4 (peptide sequence: IQAMKPMTK, peptide start residue: 166) (UniProt Q66PJ3) | 0.191 |
| FAM111B (peptide sequence: CSSTFKLKSEVNK, peptide start residue: 50) (UniProt Q6SJ93) | 0.146 |
